Reference: PubChem BioAssay AID2551 (National Center for Advancing Translational Sciences (NCATS), 2010)
Among all 310,000 compounds or so, about 17,000 (5.5%) were called active. This list was built around the results that the source calls inconclusive (neither active nor inactive); the mix of calls is not that of the screen. The call rests on the fitted dose curve; in most records, active means well fitted inhibition curve with a large enough effect; inconclusive means small, poorly fitted or top-dose-only effect, or effect the other way; inactive means no such curve, though single readings can be large or run the other way. Potencies beside an inconclusive call are fits to weak or partial responses and may not hold up.

Sequences of proteins named here, by UniProt entry; tags and fusion partners are left off. A change or cut given only in a name is not applied to a line headed by its entry.
UniProt P51450: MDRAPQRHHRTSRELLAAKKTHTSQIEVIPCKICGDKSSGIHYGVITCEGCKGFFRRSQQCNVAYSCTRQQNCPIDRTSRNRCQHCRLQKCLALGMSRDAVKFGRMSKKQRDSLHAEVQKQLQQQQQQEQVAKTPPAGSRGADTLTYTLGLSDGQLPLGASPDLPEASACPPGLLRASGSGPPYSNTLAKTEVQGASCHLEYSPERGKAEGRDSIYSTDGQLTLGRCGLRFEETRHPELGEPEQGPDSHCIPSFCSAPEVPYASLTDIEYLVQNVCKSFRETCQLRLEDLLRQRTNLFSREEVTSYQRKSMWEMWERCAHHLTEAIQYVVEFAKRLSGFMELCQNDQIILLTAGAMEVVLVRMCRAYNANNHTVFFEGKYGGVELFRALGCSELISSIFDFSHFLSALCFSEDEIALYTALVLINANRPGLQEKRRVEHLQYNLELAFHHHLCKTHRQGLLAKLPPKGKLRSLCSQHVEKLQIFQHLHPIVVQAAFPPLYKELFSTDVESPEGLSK

Target: Nuclear receptor ROR-gamma (Mus musculus) (UniProt P51450)
Assay: qHTS for inhibitors of ROR gamma transcriptional activity; further: nearly all actives have a fitted effect of over 60% in size
Details: Drosophila S2 Gal4-RORgamma UAS-luciferase reporter, 20 h; activity change, negative = inhibition: at 53.6 µM (top of the series)
Description: NIH Molecular Libraries Probe Production Network [MLPCN] NIH Chemical Genomics Center [NCGC] MLPCN Grant: R03 DA026211-01 Assay Provider: Dan Littman, New York University Assay Overview: The retinoic acid-related orphan receptor (ROR) gamma is a transcription factor that has a central role in the differentiation of Th17 cells, a subset of T helper cells that secrete the inflammatory cytokines IL-17, IL-17F, and IL-22. Th17 cells have been implicated in graft versus host disease, autoimmune disease and asthma. ROR gamma is induced in naive T helper cells in the presence of TGF-beta combined with IL-6, IL-21, or IL-23, and thereafter directs the expression of the Th17 lineage cytokines. To study the mechanism of action of ROR gamma, an insect cell-based assay was screened. This Drosophila Schneider cell line was stably transfected with two vectors: a gene expressing a fusion of the Gal4 DNA binding domain and ROR gamma transactivation domain under the control of the metallothionine promoter and a Photinus luciferase reporter regulated by the Gal4 binding site enhancer, UAS. […] Small molecule inhibitors of ROR gamma activity are detected by a decrease in luciferase reporter activity.
Assay Protocol Summary: For screening, 600 cells in 4 uL/well were dispensed into white solid 1536-well plates (Grenier) using a solenoid-based dispenser. Following transfer of 23 nL compound or DMSO vehicle by a pin tool, the plates were incubated 1 hr at ambient temperature, and 1 uL/well copper sulfate (700 uM final concentration) was added. The plates were centrifuged 15 s at 1000 RPM and incubated 20 hr at ambient temperature. After addition of 1.5 uL Photinus luciferase detection reagent, the plates were incubated 10 min at ambient temperature and then read by an ViewLux (Perkin Elmer) to detect luminescence. Keywords: NIH Roadmap, MLPCN, MLI, MLSMR, qHTS, NCGC, qHTS, nuclear hormone receptor, retinoic acid-related orphan receptor, ROR gamma
On the % scale 0 is the no-effect control and ±100 the full control effect; potency means the concentration at half of the fitted maximal effect.

Compound	Potency	activity change, negative = inhibition
COc1ccc(CNC(=S)Nc2cccc(C)c2C)cc1	active: 2.51 µM	
COc1cc(NC(=O)c2ccccc2-c2ccccc2)cc(OC)c1OC	inactive	
C=CCOC(=O)C(C(C)=O)C(NC(=O)OC)c1ccc2ccccc2c1 (centres undefined)		inactive: -9.23% [at 10 µM]
O=C(N/N=C/C(Br)=C/c1ccccc1)c1cc(-c2ccco2)[nH]n1	inconclusive: 35.5 µM [inhibitor, single point]	
Cc1ccc(-c2nn(-c3ccccc3)cc2C(=O)Nc2ccc(C(=O)O)cc2)cc1	inconclusive: 5.62 µM [activator, partial curve]	
CC(C)C(=O)Nc1ccc(NC(=O)c2ccc([N+](=O)[O-])cc2Cl)cc1	inconclusive: 8.91 µM [activator, partial curve]	
O=C(O)CCCC(=O)N1CCc2cc(S(=O)(=O)NCc3ccccc3)ccc21	inconclusive: 3.98 µM [activator, full curve, poor fit]	
CCCCCCOc1ccc(/C(C)=N/NC2=NCCN2)cc1	inconclusive: 25.1 µM [inhibitor, single point]	
O=C(O)CSCC(=O)N1CCN(Cc2ccc3c(c2)OCO3)CC1	inactive	
CC(=O)CCS(=O)(=O)c1ccc(Oc2ccc(S(=O)(=O)CCC(C)=O)cc2)cc1	active: 8.91 µM	
CCOc1cccc(NC(=O)C2CC(=O)NC(=Nc3ccccc3)S2)c1 (centres undefined)	inconclusive: 7.94 µM [activator, partial curve]	
CSCC[C@H](NC(=O)OC(C)(C)C)c1nnc(SCC=C(C)C)o1	active: 11.2 µM	
Cc1nc(/N=C(\N)NC(=O)N2c3ccccc3Sc3ccccc32)nc2ccccc12	inactive	
Cc1cc(Cl)ccc1OC(C)C(=O)Nc1ccc([N+](=O)[O-])cn1 (centres undefined)	inconclusive: 22.4 µM [activator, single point]	
Cc1cc(C)c(NC(=O)COC(=O)c2cc([N+](=O)[O-])ccc2N2CCOCC2)c(C)c1	inactive	
COc1ccc(C/C(C)=N/NC(=S)Nc2ccc(C(C)C)cc2)cc1	active: 4.47 µM	
CC(C)(C)c1ccc(-c2nc(O)c(CC(=O)O)s2)cc1	inactive	
NC(=O)c1ccccc1NC(=O)CN1CCCCCC1	inconclusive: 3.55 µM [activator, single point]	
Cc1ccc(C)n1-c1ccc(NC(=O)c2ccccc2)cc1	inactive	
COc1cc(Nc2ccc(S(N)(=O)=O)cc2)c([N+](=O)[O-])nc1[N+](=O)[O-]	inconclusive: 17.8 µM [inhibitor, single point]	
CC(Oc1ccc(Cl)cc1Cl)c1nc(-c2ccc(NC(=O)c3ccccn3)cc2)no1 (centres undefined)	inconclusive: 0.282 µM [activator, partial curve]	
O=C(NCc1ccccc1C(F)(F)F)C12CN(Cc3ccccc3)CC1C(c1ccc([N+](=O)[O-])cc1)=NO2 (centres undefined)	inconclusive: 3.16 µM [inhibitor, single point]	
Cc1ccc(-c2ccc(/C=C(\C#N)C(=O)Nc3cc(C)nn3-c3ccccc3)o2)cc1	inconclusive: 22.4 µM [inhibitor, single point]	

Some values from above.
For activity change, negative = inhibition, C=CCOC(=O)C(C(C)=O)C(NC(=O)OC)c1ccc2ccccc2c1 (centres undefined) reads inactive: -9.23% [at 10 µM]
For Potency, Cc1cc(C)c(NC(=O)COC(=O)c2cc([N+](=O)[O-])ccc2N2CCOCC2)c(C)c1 reads inactive
For Potency, Cc1nc(/N=C(\N)NC(=O)N2c3ccccc3Sc3ccccc32)nc2ccccc12 reads inactive
For Potency, Cc1ccc(-c2ccc(/C=C(\C#N)C(=O)Nc3cc(C)nn3-c3ccccc3)o2)cc1 reads inconclusive: 22.4 µM [inhibitor, single point]
For Potency, O=C(N/N=C/C(Br)=C/c1ccccc1)c1cc(-c2ccco2)[nH]n1 reads inconclusive: 35.5 µM [inhibitor, single point]

Further compounds:

Compound	Potency	activity change, negative = inhibition
O=C(Nc1ccc(NC(=O)C2CC2)nc1)c1ccco1	inconclusive: 3.98 µM [activator, partial curve]	
Cc1[nH]c2ccccc2c1C(=O)CSC(=S)N1CCCCC1	inconclusive: 7.08 µM [activator, single point]	
O=C(NCc1ccc2c(c1)OCO2)c1cc(S(=O)(=O)N2CCCCC2)ccc1F	inconclusive: 35.5 µM [activator, single point]	
CCn1nnnc1SCC(=O)c1cccc(OC)c1	inconclusive: 0.631 µM [inhibitor, full curve]	
O=C(Nc1ccc(Cl)cn1)Nc1cccs1	inconclusive: 35.5 µM [inhibitor, single point]	
COc1ccc2cc([C@H](C)C(=O)N(C)Cc3ccccc3N3CCCC3)ccc2c1	inconclusive: 12.6 µM [activator, single point]	
Cc1ccc2[nH]c(C(=O)NCCN3CCCC3)cc2c1	inactive	
O=c1oc2c(CN3CCOCC3)c(O)c(Cl)cc2c2c1CCCC2	active: 11.2 µM	
COc1ccccc1C(=O)Nc1nc2ccccc2[nH]1	active: 0.251 µM	
COc1ccc2oc(=O)c(C(=O)N3CCN(c4ccccc4F)CC3)cc2c1	inconclusive: 5.01 µM [inhibitor, partial curve, poor fit]	
N#CC(=C(/N)Sc1ccccc1N)/C(C#N)=C(/N)Sc1ccccc1N	inconclusive: 35.5 µM [inhibitor, single point]	
Fc1ccccc1-n1cn[nH]c1=S	inactive	
CCCOC(=O)c1ccc(NC(=O)c2ccoc2C)cc1	inconclusive: 10 µM [activator, partial curve]	
Cc1cccc(CS(=O)(=O)c2ncc(Cl)c(C(=O)NCc3ccc4c(c3)OCO4)n2)c1	active: 6.31 µM	
N#Cc1cccc(-c2nccc(NCc3cccnc3)n2)c1	inconclusive: 12.6 µM [activator, single point]	
COc1cccc(CN(C)C(=O)c2cc(COc3ccc(-n4cncn4)cc3)on2)c1	inconclusive: 14.1 µM [activator, single point]	
O=[N+]([O-])c1nn(-c2ccc3c(c2)OCCO3)n(O)c1=NCc1ccc(F)cc1		inactive: 22.6% [at 10 µM]
COC(=O)c1cc(=O)n(Cc2cccs2)c(=Nc2ccc(F)cc2)s1	inconclusive: 35.5 µM [inhibitor, single point]	
COc1ccc(/C=C/C(=O)NCc2cn(C)nc2C)cc1COc1ccc(Cl)cc1Br	inconclusive: 35.5 µM [inhibitor, single point]	
CCOC(=O)N1CCC(N2C(=O)c3ccccc3C2Nc2cccnc2)CC1 (centres undefined)	inconclusive: 0.199 µM [activator, full curve, poor fit]	
O=C1CN(CC(=O)Nc2cccc(Cl)c2Cl)c2ccccc2N1	inconclusive: 11.2 µM [activator, single point]	
COc1ccccc1C(=O)Nc1nnc(S(=O)(=O)N(C)Cc2ccccc2)s1	inactive	
CCOc1ccc(NS(=O)(=O)c2ccc(C(=O)N3CCN(C(C)=O)CC3)cc2)cc1	inconclusive: 11.2 µM [activator, single point]	

Compound	Potency	activity change, negative = inhibition
CN(C)S(=O)(=O)N1CCCC(C(=O)c2ccc(-c3ccccc3)cc2)C1 (centres undefined)	inactive	
COc1ccc(-c2cc(C(=O)N(C)Cc3ccccc3)c3ccccc3n2)cc1	inconclusive: 14.1 µM [activator, partial curve, poor fit]	
CCOC(=O)c1cnn(-c2nc3sc4c(c3c(=O)[nH]2)CCCC4)c1N	active: 0.562 µM	
O=c1c2ccc([N+](=O)[O-])cc2ncn1CCOc1ccc(Cl)cc1	inactive	
O=C(CCCn1c(=S)[nH]c2ccsc2c1=O)NCCc1ccccc1	inconclusive: 17.8 µM [inhibitor, single point]	
CSc1ncc(C(=O)Nc2ccc(Cl)cc2)c(C)n1	inconclusive: 31.6 µM [activator, single point]	
CCC1(C)N=C(c2ccc3c(c2)OCO3)CC(c2ccccc2O)N1 (centres undefined)	inconclusive: 4.47 µM [activator, single point]	
COCCn1c(SCC(=O)Nc2ccc(Cl)c(S(=O)(=O)N(C)C)c2)nc2ccccc21	inactive	
O[C@@H]1CCN2Cc3ccccc3N=C12	inactive	
CCC(=O)NCCc1nc2cc(NC(=O)COc3ccccc3)ccc2n1C	inactive	
CC(C)C[C@@H](CC(=O)N[C@H](CC(=O)N[C@@H]1CCNC[C@H]1C(=O)N[C@H](CC(=O)N[C@@H](CCC(=O)O)CC(=O)O)Cc1c[nH]c2ccccc12)C(C)C)NC(=O)[C@@H]1CNCC[C@H]1N	inactive	
C(=N\Nc1nc(Nc2ccccc2)nc(Nc2ccccc2)n1)/c1cccnc1	inconclusive: 12.6 µM [inhibitor, single point]	
COC(=O)Sc1nc(N2CCOCC2)c2c(c1C#N)CC(C)(C)OC2	inconclusive: 11.2 µM [inhibitor, single point]	
COc1ccc(C2C=C3CNS(=O)(=O)C3CC2OC(=O)c2cccc(C)c2)cc1 (centres undefined)	inactive	
Cc1cc(C)cc(N2C(=O)CC(Sc3nnnn3-c3ccccc3)C2=O)c1 (centres undefined)	inconclusive: 28.2 µM [inhibitor, single point]	
COc1ccc(NC(=O)C2CC(c3ccc(Cl)cc3)=NO2)cc1 (centres undefined)	inconclusive: 35.5 µM [inhibitor, single point]	
CCOc1ccc(N2C(=O)CC(N3CCN(C(=O)CN4CCCC4)CC3)C2=O)cc1 (centres undefined)	inactive	
Cc1ccc(C2=[N+]([O-])C3(CCCCC/C3=N\NC(N)=S)N(O)C2(C)C)o1 (centres undefined)	active: 1.58 µM	
CCN=C(Nc1cccc(F)c1)SC1CC(=O)N(c2ccc(OC)cc2)C1=O (centres undefined)	inconclusive: 14.1 µM [activator, single point]	
Cc1cccc(C)c1OCc1cc(C(=O)N2CCN(C3CCCC3)CC2)no1	inconclusive: 0.316 µM [activator, full curve, poor fit]	
CC(C)(C)c1ccc(Cn2nnc3c(=O)[nH]c(C4CCCN(C(=O)c5ccco5)C4)nc32)cc1 (centres undefined)	inconclusive: 12.6 µM [activator, single point]	
O=S(=O)(c1cccs1)N1CN(Cc2ccco2)c2nc3ccccc3nc21	inconclusive: 5.62 µM [activator, single point]	
Nc1nc(Nc2cccc(Cl)c2)nc(NCCO)c1[N+](=O)[O-]	inconclusive: 11.2 µM [activator, partial curve]	
